From PubChem BioAssay AID445 (National Center for Advancing Translational Sciences (NCATS), 2006)
This is one part of the list. Further columns of the screen follow, without active or inactive calls. Compounds called inactive in the main read-out are mostly missing here. The note in brackets gives the kind of curve behind each potency; many fits are weak.

Assay: IkB Signaling
Details: ABC-DLBCL IkBa-CBG/CBR dual luciferase ratio (green luciferase fused to IkBa over red control in OCI-Ly3 lymphoma cells), 4 h
Method in brief: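 In this assay, an IκBα–CBG68 fusion accumulates when IKK-driven degradation is blocked; native CBR normalizes for cell number. OCI-Ly3 cells were treated 4 h with compound and doxycycline, then green and red light read after Chroma-Glo addition.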

[1] = measured here: control luc red channel unless noted
[2] = measured here: IkB-luc green channel
[3] = measured here: control luc red channel

With `CCOc1ccc(C(=O)Nc2cccc(OCc3cc(=O)n4cc(C)sc4n3)c2)cc1` the AC50 [1] was 0.398 µM [falling, full curve].
For `CCCCOC(=O)c1cccc(NC(=O)c2cc3ccccc3o2)c1`, the AC50 [1] was 10 µM [falling, partial curve].
For `O=C(NCCc1ccccc1)c1ccc(CSc2nc3ccncc3n2Cc2ccc(F)cc2)cc1`, the AC50 [1] was 12.6 µM [falling, partial curve].
In the case of `Cc1ccc(C)c(Cn2nc(-c3cc(C)ccc3C)ccc2=O)c1`, the AC50 [1] is reported as 25.1 µM [falling, single point].
For `CCOC(=O)c1c(S(=O)(=O)N2CCCC(C(=O)N3CCN(c4ccccc4)CC3)C2)c(C)n(C)c1C` (stereo unspecified), the AC50 [1] was 6.31 µM [rising, single point].
In the case of `O=[N+]([O-])c1ccc(C(c2sc3nc(-c4ccco4)nn3c2O)N2CCN(c3cccc(Cl)c3)CC2)cc1` (stereo unspecified), the AC50 [1] is reported as 39.8 µM [falling, single point].
In the case of `Cc1cc(C(=O)COC(=O)C2=COCCO2)c(C)n1-c1ccc2c(c1)OCO2`, the AC50 [1] is reported as 31.6 µM [falling, single point].
With `CCOC(=O)C1CCN(C(=O)CN2c3ccc(CC)cc3-c3ccccc3S2(=O)=O)CC1` the AC50 [1] was 25.1 µM [falling, single point].
With `CCOC(=O)C1CCN(C(=O)C2CCN(S(=O)(=O)c3cc(Cl)ccc3Cl)CC2)CC1` the AC50 [1] was 12.6 µM [falling, partial curve].
With `CCS(=O)(=O)c1ncc(N(Cc2ccc(F)cc2)Cc2ccco2)c(C(=O)Nc2cc(C)ccc2C)n1` the AC50 [1] was 10 µM [falling, partial curve, poor fit].
For `CCCn1c(NCc2ccc(N(CC)CC)cc2)nc2ccccc21`, the AC50 [1] was 31.6 µM [falling, single point].
In the case of `OC[C@@H]1O[C@@H](n2cnc3c(NCCc4ccccc4)ncnc32)[C@@H](O)[C@H]1O`, the AC50 [2] is reported as 2.51 µM [rising, full curve] and the AC50 [3] is reported as 0.316 µM [rising, full curve].
For `CC(=O)OCC(=O)[C@@]1(O)CC[C@@H]2[C@H]3CCC4=CC(=O)C=C[C@]4(C)[C@]3(F)[C@@H](O)C[C@@]21C`, the AC50 [1] was 3.98 nM [rising, full curve] [measured here: IkB-luc green channel].
In the case of `CC(=O)N1c2c(cc(Br)cc2S(=O)(=O)N2CCN(c3cccc(Cl)c3)CC2)CC1C` (stereo unspecified), the AC50 [1] is reported as 7.94 µM [falling, partial curve].
With `COc1cccc(N2CCN(C(=O)c3cnn(-c4ccc(C)cc4C)c3C3CCN(C(=O)OC(C)(C)C)CC3)CC2)c1` the AC50 [1] was 20 µM [falling, partial curve].
With `Cc1ccc(C)c(N2CCN(C3=C(c4ccccc4)C(=O)c4ccccc43)CC2)c1` the AC50 [1] was 39.8 µM [falling, partial curve, poor fit].
For `CCN(Cc1ccccc1)C(=O)c1cc2c(s1)-c1c(C)cccc1OC2`, the AC50 [1] was 39.8 µM [falling, single point].
For `COc1ccc(/C=N/n2cc(-c3ccccc3)nc2N)cc1`, the AC50 [1] was 10 µM [falling, partial curve].
In the case of `CCN1CCN(c2c(S(=O)(=O)c3ccc(C)c(C)c3)cnc3ccc(F)cc23)CC1`, the AC50 [1] is reported as 25.1 µM [falling, single point].
In the case of `Cc1nn(CC(=O)Nc2ccccc2F)c(=O)c2c(C)n(-c3ccc(Cl)cc3)nc12`, the AC50 [1] is reported as 39.8 µM [falling, partial curve, poor fit].
For `COc1ccc(NC(=O)CSc2cc(-c3ccccc3)nc(C)n2)cc1`, the AC50 [1] was 39.8 µM [falling, single point].
For `COc1cccc(-n2nnnc2SCC(=O)Nc2cccc(C)n2)c1`, the AC50 [1] was 7.94 µM [falling, partial curve].
In the case of `COc1ccccc1N1CCN(C(c2ccc(Cl)cc2)c2nnnn2C(C)(C)C)CC1` (stereo unspecified), the AC50 [1] is reported as 39.8 µM [falling, single point].
In the case of `COc1ccc(C2C(C(=O)Nc3ccc(F)cc3)=C(C)Nc3nc(CCCO)nn32)cc1` (stereo unspecified), the AC50 [1] is reported as 15.8 µM [falling, partial curve].
For `O=C(Nc1c2c(nn1-c1ccc(Cl)cc1)CS(=O)(=O)C2)c1cccc(F)c1`, the AC50 [1] was 39.8 µM [falling, single point].
With `COC(=O)c1ccc(C2c3c(-c4ccccc4O)n[nH]c3C(=O)N2Cc2ccncc2)cc1` (stereo unspecified) the AC50 [1] was 20 µM [falling, partial curve].
With `CC1CN(S(=O)(=O)c2ccc(NC(=O)c3cc(-c4ccccc4O)n[nH]3)cc2)CC(C)O1` (stereo unspecified) the AC50 [1] was 3.16 µM [falling, full curve].
In the case of `CC(C)c1nn2c(=O)cc(COC(=O)c3ccccc3NC(=O)COc3ccccc3)nc2s1`, the AC50 [1] is reported as 20 µM [falling, partial curve].
In the case of `CCOc1ccccc1NC(=O)c1c(NCc2cccs2)sc2c1CCC(C)C2` (stereo unspecified), the AC50 [1] is reported as 0.316 µM [rising, partial curve].
For `Cc1cccc(OCc2ccc(-c3nc(C#N)c(NCc4cccnc4)o3)o2)c1`, the AC50 [1] was 31.6 µM [falling, single point].
For `COc1ccc(-c2cc(C)no2)cc1S(=O)(=O)NCc1cccs1`, the AC50 [1] was 20 µM [rising, single point].
With `CCOC(=O)c1c(S(=O)(=O)N2CCCC(C(=O)Nc3ccccn3)C2)c(C)n(C)c1C` (stereo unspecified) the AC50 [1] was 39.8 µM [falling, single point].
With `COc1ccc(CN2CCc3c(c(=O)n4ncc(C(=O)N5CCN(c6ccc(F)cc6)CC5)c4n3C)C2)cc1` the AC50 [1] was 10 µM [falling, partial curve].
For `CCCOc1cccc(C2c3c(oc4ccccc4c3=O)C(=O)N2c2nncs2)c1` (stereo unspecified), the AC50 [1] was 20 µM [falling, single point].
With `COc1cccc(C(=O)c2cn(CC(=O)NCc3ccccc3Cl)c3nc(C)ccc3c2=O)c1` the AC50 [1] was 39.8 µM [rising, single point] [measured here: IkB-luc green channel].
For `O=C(Nc1cccc(O)c1)c1noc2c1CCc1ccccc1-2`, the AC50 [2] was 31.6 µM [rising, single point] and the AC50 [3] was 10 µM [falling, partial curve, poor fit].
For `Cc1ccc(C)c(Cn2c(CCCNC(=O)C3CCCCC3)nc3ccccc32)c1`, the AC50 [1] was 15.8 µM [falling, partial curve].
With `Cc1c(Cl)cccc1NC(=O)Cn1cc(C(=O)c2cccs2)c2ccccc21` the AC50 [1] was 3.16 µM [falling, full curve].
With `CCOC(=O)c1[nH]c(C)c(C(=O)NC(CC)Cc2ccccc2)c1C` (stereo unspecified) the AC50 [1] was 25.1 µM [falling, single point].
In the case of `Cc1ccc(-c2nnn3c2nc(NCC(C)c2ccccc2)c2ccccc23)cc1` (stereo unspecified), the AC50 [1] is reported as 39.8 µM [falling, single point].
With `Cc1nnc(NC(=O)c2nc(SCc3ccccc3F)ncc2Cl)s1` the AC50 [1] was 20 µM [falling, partial curve].
For `Clc1ccc(OCc2nnc(SCCN3CCCCC3)n2Cc2ccco2)cc1`, the AC50 [1] was 5.01 µM [falling, partial curve].
With `CCCOc1ccc(C2CC(=O)Nc3c2c(C)nn3-c2nncc(-c3cccc(OC)c3)n2)cc1OC` (stereo unspecified) the AC50 [1] was 0.02 µM [rising, full curve].
With `COc1cccc(C2=CC(c3cc(Br)ccc3F)n3nnnc3N2)c1` (stereo unspecified) the AC50 [1] was 39.8 µM [falling, single point].
With `Cc1ccc(NC(=O)Nc2sc3nc4n(c(=O)c3c2C)CCC(C)CC4)c(Cl)c1` (stereo unspecified) the AC50 [1] was 12.6 µM [falling, partial curve].
For `COc1cccc(OC)c1C(=O)Nc1nc2c(s1)CCc1ccccc1-2`, the AC50 [1] was 1.26 µM [falling, partial curve].
In the case of `Cc1nc(N2CCC3(CC2)OCCO3)c2nnn(Cc3ccccc3F)c2n1`, the AC50 [1] is reported as 39.8 µM [falling, single point].
In the case of `COC(=O)c1[nH]c2ccc(F)cc2c1NS(=O)(=O)c1ccc(OC)cc1OC`, the AC50 [1] is reported as 25.1 µM [falling, partial curve].
With `Cc1cccc(N2C(=O)CSC23C(=O)N(CC(=O)NCc2ccccc2Cl)c2ccccc23)c1` (stereo unspecified) the AC50 [1] was 25.1 µM [falling, partial curve].
In the case of `CO[C@@]12C[C@@H](COC(=O)c3cncc(Br)c3)CN(C)[C@H]1Cc1cn(C)c3cccc2c13`, the AC50 [1] is reported as 20 µM [falling, partial curve, poor fit].
For `COc1ccc(CCNC(=O)C(=O)NCC(c2ccco2)S(=O)(=O)c2ccccc2)cc1` (stereo unspecified), the AC50 [1] was 0.01 µM [rising, full curve, poor fit].
With `C=CCNc1ncnc2c1ncn2C1OC(CO)C(O)C1O` (stereo unspecified) the AC50 [1] was 3.16 µM [rising, full curve].
For `COc1ccc(-c2nnc3n2N(C(C)=O)C(c2ccc(Cl)c(Cl)c2)=C(C(C)=O)S3)cc1`, the AC50 [1] was 20 µM [falling, partial curve, poor fit].
In the case of `CCN(C(=O)Cn1cnc2onc(-c3ccc(F)cc3)c2c1=O)c1ccc(OC)cc1`, the AC50 [1] is reported as 20 µM [falling, partial curve].
With `COc1cc(C(=O)Nc2nc3ccccc3[nH]2)cc(OC)c1OC` the AC50 [1] was 10 µM [falling, partial curve].
In the case of `Cc1oc2ncn(CC(C)C)c(=O)c2c1C(=O)NC(C)c1ccccc1` (stereo unspecified), the AC50 [1] is reported as 20 µM [falling, single point].
In the case of `Cc1cc(C)c2nc(NC(=O)c3ccc(S(=O)(=O)N4CCc5ccccc54)cc3)sc2c1`, the AC50 [1] is reported as 6.31 µM [falling, partial curve].
In the case of `Cc1ccc(CNc2ncnc3onc(-c4ccc(F)cc4)c23)cc1`, the AC50 [1] is reported as 0.501 µM [falling, partial curve, poor fit].
For `COc1ccc(C(=O)Nc2ccc3c(c2)CCCN3C(=O)c2cccs2)c(OC)c1`, the AC50 [1] was 31.6 µM [falling, single point].
